Results as given in paper PMC12089348.

Protein sequences, listed by entry. Tags and fused reporters are not part of them. Lines headed by an entry give the natural chain unless they say otherwise; changes in a name come on top.
UniProt P35222: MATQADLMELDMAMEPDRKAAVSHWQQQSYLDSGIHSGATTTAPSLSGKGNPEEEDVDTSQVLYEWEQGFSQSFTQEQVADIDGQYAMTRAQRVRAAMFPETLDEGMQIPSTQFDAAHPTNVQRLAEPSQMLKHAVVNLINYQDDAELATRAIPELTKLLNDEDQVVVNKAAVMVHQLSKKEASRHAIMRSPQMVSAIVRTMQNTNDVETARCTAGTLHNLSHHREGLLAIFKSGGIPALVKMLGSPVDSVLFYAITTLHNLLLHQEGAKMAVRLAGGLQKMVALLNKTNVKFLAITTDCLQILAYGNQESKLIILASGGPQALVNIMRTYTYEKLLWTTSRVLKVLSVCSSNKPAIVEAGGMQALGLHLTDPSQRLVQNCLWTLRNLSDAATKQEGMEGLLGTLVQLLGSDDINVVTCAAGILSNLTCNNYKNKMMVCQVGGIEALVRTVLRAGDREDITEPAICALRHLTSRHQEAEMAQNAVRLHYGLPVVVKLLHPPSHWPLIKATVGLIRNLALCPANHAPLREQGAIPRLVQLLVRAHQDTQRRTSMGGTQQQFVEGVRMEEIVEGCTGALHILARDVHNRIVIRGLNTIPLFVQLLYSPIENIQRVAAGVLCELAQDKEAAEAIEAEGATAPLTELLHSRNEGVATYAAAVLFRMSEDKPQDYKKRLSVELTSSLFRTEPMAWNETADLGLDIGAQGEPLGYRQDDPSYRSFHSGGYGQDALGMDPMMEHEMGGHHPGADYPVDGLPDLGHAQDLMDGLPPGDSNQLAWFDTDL

Legend:
[1] = biological target: endogenous β-catenin (human (endogenous in HEK293T)) (UniProt P35222); experiment: co-IP; lysates of overnight serum-starved HEK293T cells transiently expressing V5-tagged FBXW11; endogenous β-catenin immunoprecipitated with anti-β-catenin antibody cross-linked to Protein G Sepharose (2 h, 4 °C); IP buffer 25 mM Tris-HCl pH 7.4, 1% Triton X-100, 2 mM EDTA, 150 mM NaCl; Western blot
[2] = biological target: Flag-tagged β-catenin^I35T (human) (UniProt P35222); experiment: co-IP; lysates of overnight serum-starved HEK293T cells transiently co-expressing V5-tagged FBXW11 and Flag-tagged β-catenin; immunoprecipitated with anti-Flag or anti-V5 antibody cross-linked to Protein G Sepharose (2 h, 4 °C); IP buffer 25 mM Tris-HCl pH 7.4, 1% Triton X-100, 2 mM EDTA, 150 mM NaCl; Western blot
[3] = biological target: Flag-tagged β-catenin^WT (human) (UniProt P35222); experiment: as above

Measured: binding

V5-tagged FBXW11^WT (from UniProt E5RGC1)
binds: all assays above

No constants are given. Whether binding was seen depends on the method and setting. In cells and extracts the contact can be indirect. Binding can be weak; no strength is given.
